The results in this text go back to PMC11844279.

By UniProt entry, the sequences of proteins in these tests, tags left out.
UniProt Q96DH6: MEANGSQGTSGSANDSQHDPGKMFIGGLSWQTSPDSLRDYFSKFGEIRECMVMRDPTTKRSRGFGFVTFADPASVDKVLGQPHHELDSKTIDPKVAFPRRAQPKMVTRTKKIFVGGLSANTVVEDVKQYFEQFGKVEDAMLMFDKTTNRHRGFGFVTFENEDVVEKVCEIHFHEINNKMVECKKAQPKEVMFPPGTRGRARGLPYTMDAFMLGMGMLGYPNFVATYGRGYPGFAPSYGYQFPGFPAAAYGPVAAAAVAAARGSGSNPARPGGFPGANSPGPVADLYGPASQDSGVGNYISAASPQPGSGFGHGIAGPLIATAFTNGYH
UniProt P08670: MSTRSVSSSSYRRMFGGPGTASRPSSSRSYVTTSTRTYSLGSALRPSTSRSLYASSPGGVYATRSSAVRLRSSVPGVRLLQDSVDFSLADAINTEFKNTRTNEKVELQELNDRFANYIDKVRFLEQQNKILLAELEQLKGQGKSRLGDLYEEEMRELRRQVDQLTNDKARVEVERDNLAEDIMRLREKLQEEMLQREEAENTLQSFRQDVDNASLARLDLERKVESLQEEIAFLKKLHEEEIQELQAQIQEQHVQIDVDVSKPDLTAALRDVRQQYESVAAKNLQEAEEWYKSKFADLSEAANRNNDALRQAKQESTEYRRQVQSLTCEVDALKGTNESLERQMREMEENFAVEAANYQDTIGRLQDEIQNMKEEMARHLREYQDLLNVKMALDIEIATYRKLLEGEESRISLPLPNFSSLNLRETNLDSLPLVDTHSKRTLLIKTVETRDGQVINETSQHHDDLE

Results are given in words; binding and its absence hold for the method and conditions named. In cells and extracts the contact can be indirect. Some results given as binding are weak or reduced against the parent protein; the word gives no strength.

The target in this assay is Musashi RNA binding protein 2 (MSI2) (human (endogenous in MDA-MB-231)) (UniProt Q96DH6). In words: co-IP; MSI2 co-IP products (called Flag-MSI2 pulldown) from untreated MDA-MB-231 and DEHP-exposed clone #1 cells, western blotting for MSI2 and vimentin.

As to vimentin (from UniProt P08670 1-466), the binding entry was “binds”.
